In article PMC6177406:
No constants are given. Whether binding was seen depends on the method and setting. In cells and extracts the contact can be indirect. Some entries that bind do so weakly or less than the wild type. For part of these data: Sequences can lack the tags named with a protein. Each block holds one molecule with its values, some of them ahead of it.

Amino acid sequences for entries named in this document (tags omitted).
UniProt P11802: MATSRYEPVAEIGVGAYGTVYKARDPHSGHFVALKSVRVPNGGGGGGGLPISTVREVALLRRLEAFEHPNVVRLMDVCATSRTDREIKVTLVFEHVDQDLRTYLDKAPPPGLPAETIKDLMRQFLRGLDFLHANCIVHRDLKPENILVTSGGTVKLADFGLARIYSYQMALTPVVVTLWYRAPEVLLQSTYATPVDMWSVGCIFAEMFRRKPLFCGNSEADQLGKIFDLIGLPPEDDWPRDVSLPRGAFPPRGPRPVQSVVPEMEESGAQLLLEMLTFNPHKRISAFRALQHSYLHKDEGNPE
UniProt P03372: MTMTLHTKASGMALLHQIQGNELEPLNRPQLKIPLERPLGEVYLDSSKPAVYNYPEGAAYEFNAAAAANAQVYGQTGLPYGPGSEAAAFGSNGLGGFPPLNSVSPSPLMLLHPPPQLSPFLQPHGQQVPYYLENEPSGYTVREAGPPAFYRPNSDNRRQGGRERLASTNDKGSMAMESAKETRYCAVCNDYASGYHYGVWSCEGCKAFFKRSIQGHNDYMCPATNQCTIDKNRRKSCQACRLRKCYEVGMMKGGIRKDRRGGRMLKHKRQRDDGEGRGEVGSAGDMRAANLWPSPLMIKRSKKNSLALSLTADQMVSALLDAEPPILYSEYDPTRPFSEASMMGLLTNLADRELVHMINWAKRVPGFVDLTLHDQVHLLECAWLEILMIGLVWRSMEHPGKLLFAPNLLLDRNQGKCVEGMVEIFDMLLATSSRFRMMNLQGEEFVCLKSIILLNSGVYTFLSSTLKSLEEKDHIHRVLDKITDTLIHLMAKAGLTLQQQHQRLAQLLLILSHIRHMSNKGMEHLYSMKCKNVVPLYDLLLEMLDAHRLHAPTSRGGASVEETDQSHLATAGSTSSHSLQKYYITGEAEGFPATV

Tests used:
[1] = target: T1, GST-LEM4 (containing amino acids 59–938) (human) (UniProt Q86XL3); test: pull-down; GST alone or GST-LEM4 immobilized on glutathione-agarose beads, incubated with extract of HEK293T cells transfected with GFP-ERα or GFP-tagged ERα mutants; immunoblot with anti-ERα antibody; only the target purified
T1 sequence: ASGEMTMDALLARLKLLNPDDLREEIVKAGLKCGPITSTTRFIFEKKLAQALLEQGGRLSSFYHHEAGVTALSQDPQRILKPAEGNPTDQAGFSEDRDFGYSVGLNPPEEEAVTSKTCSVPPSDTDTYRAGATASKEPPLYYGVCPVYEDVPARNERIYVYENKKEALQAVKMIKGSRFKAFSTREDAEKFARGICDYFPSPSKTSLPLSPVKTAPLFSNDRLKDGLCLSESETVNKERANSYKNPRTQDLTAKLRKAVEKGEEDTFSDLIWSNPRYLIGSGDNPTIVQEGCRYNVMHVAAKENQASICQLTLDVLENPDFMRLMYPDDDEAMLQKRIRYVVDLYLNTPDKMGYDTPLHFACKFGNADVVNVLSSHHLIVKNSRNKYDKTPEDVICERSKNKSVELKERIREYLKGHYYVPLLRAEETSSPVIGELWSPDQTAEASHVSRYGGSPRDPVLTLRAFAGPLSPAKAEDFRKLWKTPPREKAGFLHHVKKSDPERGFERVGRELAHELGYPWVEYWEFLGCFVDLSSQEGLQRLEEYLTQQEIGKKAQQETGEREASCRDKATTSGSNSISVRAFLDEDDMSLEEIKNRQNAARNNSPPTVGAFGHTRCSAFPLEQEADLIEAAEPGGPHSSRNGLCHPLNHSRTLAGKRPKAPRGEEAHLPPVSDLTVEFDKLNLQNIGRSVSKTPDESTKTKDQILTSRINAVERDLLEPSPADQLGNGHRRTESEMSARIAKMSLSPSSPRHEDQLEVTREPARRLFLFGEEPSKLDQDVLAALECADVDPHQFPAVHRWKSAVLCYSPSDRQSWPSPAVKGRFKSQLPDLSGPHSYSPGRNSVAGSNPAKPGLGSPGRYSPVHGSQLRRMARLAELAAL

[2] = target: T2, FLAG-LEM4 (human) (UniProt Q86XL3); test: co-IP; HEK293T cells co-transfected with a FLAG-tagged and a GFP-tagged protein; lysate precipitated with anti-FLAG affinity gel, immunoblot with anti-GFP antibody; for FLAG-ERα and GFP-Aurora-A in LEM4-depleted HEK293T-shLEM4 cells
T2 sequence: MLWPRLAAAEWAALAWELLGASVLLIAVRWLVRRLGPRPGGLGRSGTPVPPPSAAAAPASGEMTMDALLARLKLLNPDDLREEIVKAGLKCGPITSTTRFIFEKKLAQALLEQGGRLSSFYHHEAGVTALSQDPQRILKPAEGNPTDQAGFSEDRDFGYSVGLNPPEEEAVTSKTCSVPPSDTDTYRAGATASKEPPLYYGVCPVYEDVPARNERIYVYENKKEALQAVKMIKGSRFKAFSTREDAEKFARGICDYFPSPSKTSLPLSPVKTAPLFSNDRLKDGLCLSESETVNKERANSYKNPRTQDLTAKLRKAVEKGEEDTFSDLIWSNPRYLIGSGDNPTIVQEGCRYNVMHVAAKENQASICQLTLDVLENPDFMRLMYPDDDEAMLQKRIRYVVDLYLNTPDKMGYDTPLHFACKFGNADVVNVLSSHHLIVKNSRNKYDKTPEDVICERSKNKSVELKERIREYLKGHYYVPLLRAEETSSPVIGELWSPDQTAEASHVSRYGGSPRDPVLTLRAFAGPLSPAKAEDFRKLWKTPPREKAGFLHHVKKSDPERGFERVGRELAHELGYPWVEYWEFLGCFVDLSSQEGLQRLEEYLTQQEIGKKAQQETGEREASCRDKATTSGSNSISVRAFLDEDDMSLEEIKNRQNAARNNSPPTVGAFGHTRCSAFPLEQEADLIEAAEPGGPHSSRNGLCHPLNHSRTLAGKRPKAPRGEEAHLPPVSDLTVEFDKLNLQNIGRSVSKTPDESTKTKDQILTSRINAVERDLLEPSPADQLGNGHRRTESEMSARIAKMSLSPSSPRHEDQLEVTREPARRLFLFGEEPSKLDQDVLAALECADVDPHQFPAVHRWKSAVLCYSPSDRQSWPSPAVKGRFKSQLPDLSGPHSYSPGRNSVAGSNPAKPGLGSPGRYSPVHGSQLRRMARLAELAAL

[3] = target: FLAG-CDK4 (UniProt P11802); test: as above
[4] = target: ERα (endogenous, BT474 cells) (human (endogenous in BT474)) (UniProt P03372); test: co-IP; endogenous proteins, BT474 cells; immunoprecipitated with anti-ERα antibody, detected with anti-LEM4 antibody
[5] = target: T1, GST-LEM4 (containing amino acids 59–938) (human); test: pull-down; GST alone or recombinant GST-LEM4 immobilized on glutathione-agarose beads, incubated with MCF7 cell extract at 4 °C for 2 h; immunoblot with CDK4 and Rb antibodies; only the target purified
[6] = target: T2, FLAG-LEM4 (human); test: co-IP; cells transfected with pCMV6-FLAG-LEM4 or empty vector (HEK293T in the legend, MCF7 in the text); anti-FLAG affinity gel, immunoblot with Rb antibody for endogenous Rb

B1: GFP-LEM4 (protein, UniProt Q86XL3 1-938)
chain: T2 sequence
binding [3]: binds

B2: LEM4 (endogenous, BT474 cells) (protein, UniProt Q86XL3 1-938)
chain: T2 sequence
binding [4]: binds

B3: Rb (endogenous, MCF7 cell extract) (protein, UniProt P06400 1-928)
chain: MPPKTPRKTAATAAAAAAEPPAPPPPPPPEEDPEQDSGPEDLPLVRLEFEETEEPDFTALCQKLKIPDHVRERAWLTWEKVSSVDGVLGGYIQKKKELWGICIFIAAVDLDEMSFTFTELQKNIEISVHKFFNLLKEIDTSTKVDNAMSRLLKKYDVLFALFSKLERTCELIYLTQPSSSISTEINSALVLKVSWITFLLAKGEVLQMEDDLVISFQLMLCVLDYFIKLSPPMLLKEPYKTAVIPINGSPRTPRRGQNRSARIAKQLENDTRIIEVLCKEHECNIDEVKNVYFKNFIPFMNSLGLVTSNGLPEVENLSKRYEEIYLKNKDLDARLFLDHDKTLQTDSIDSFETQRTPRKSNLDEEVNVIPPHTPVRTVMNTIQQLMMILNSASDQPSENLISYFNNCTVNPKESILKRVKDIGYIFKEKFAKAVGQGCVEIGSQRYKLGVRLYYRVMESMLKSEEERLSIQNFSKLLNDNIFHMSLLACALEVVMATYSRSTSQNLDSGTDLSFPWILNVLNLKAFDFYKVIESFIKAEGNLTREMIKHLERCEHRIMESLAWLSDSPLFDLIKQSKDREGPTDHLESACPLNLPLQNNHTAADMYLSPVRSPKKKGSTTRVNSTANAETQATSAFQTQKPLKSTSLSLFYKKVYRLAYLRLNTLCERLLSEHPELEHIIWTLFQHTLQNEYELMRDRHLDQIMMCSMYGICKVKNIDLKFKIIVTAYKDLPHAVQETFKRVLIKEEEYDSIIVFYNSVFMQRLKTNILQYASTRPPTLSPIPHIPRSPYKFPSSPLRIPGGNIYISPLKSPYKISEGLPTPTKMTPRSRILVSIGESFGTSEKFQKINQMVCNSDRVLKRSAEGSNPPKPLKKLRFDIEGSDEADGSKHLPGESKFQQKLAEMTSTRTRMQKQKMNDSMDTSNKEEK
binding [5]: binds

More lines, now with the values ahead:

binding [1]: binds | binding [2]: binds
Molecule: GFP-ERα (from UniProt P03372 1-595)

binding [6]: binds
B4: Rb (endogenous, in the cells transfected with FLAG-LEM4) (protein, UniProt P06400 1-928)
chain: B3 chain
